Taken from: PubChem BioAssay AID686938 (Drosophila RNAi Screening Center, 2013)
Aim: 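Knock-downs reducing store-operated calcium influx in Drosophila cells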 (primary screen). System: Drosophila S2R+ cells. Reagent: long dsRNA against Drosophila genes, about 0.25 µg dsRNA per well, roughly 10,000 cells. Time to read-out: 5 days of knock-down before the calcium assay. Conditions: thapsigargin (SERCA pump blocker) to empty calcium stores; entry signal taken 4 min after adding it. Measured: 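Duplicate raw fluo-4 intensities per well from a plate reader, at rest and four minutes after thapsigargin emptied calcium stores; entry-to-rest ratio filled for only some wells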. Reading the numbers: calcium entry signal: higher = stronger calcium signal after store depletion; entry to resting ratio: higher = more calcium entry relative to resting level; resting calcium signal: higher = higher resting calcium signal. Hit rule: 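Called when the plate z-score of the entry-to-rest ratio, mean of duplicates, falls below −3; wells with low overall dye signal (Fmax z below −2) or more than five off-targets excluded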. Calls: active = strongly reduced calcium entry; inactive = no strong reduction.
The deposit covers about 23,000 reagents; shown is a random part of those with a known target gene and a result. In the full data, 75 (0.33%) were called active. 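Raw plate signals without normalisation; calls rest on plate z-scores that were not deposited; ratio present for only 364 wells.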 Names joined by + are all predicted targets of the reagent. The record does not give: the dose of the treatment.

Target gene | dsRNA | calcium entry signal, replicate 1 (fluorescence units) | calcium entry signal, replicate 2 (fluorescence units) | entry to resting ratio | resting calcium signal, replicate 1 (fluorescence units) | resting calcium signal, replicate 2 (fluorescence units) | activity call
CG34273 | DRSC13041 | 2.63e7 | 4.15e7 | – | 1.17e7 | 1.86e7 | inactive
temp | DRSC18271 | 3.53e7 | 3.68e7 | – | 1.67e7 | 1.72e7 | inactive
Tom40 | DRSC18796 | 2.33e7 | 1.80e7 | – | 1.25e7 | 1.09e7 | inactive
Drsl6 | DRSC08161 | 3.21e7 | 4.29e7 | – | 1.50e7 | 1.91e7 | inactive
Peritrophin-15b | DRSC02266 | 4.13e7 | 5.74e7 | – | 2.00e7 | 2.43e7 | inactive
Mapmodulin | DRSC06956 | 3.31e7 | 2.78e7 | – | 1.48e7 | 1.42e7 | inactive
CG10943 | DRSC09805 | 2.57e7 | 4.17e7 | – | 1.32e7 | 1.84e7 | inactive
CG17672 | DRSC09230 | 3.44e7 | 3.40e7 | – | 2.07e7 | 1.81e7 | inactive
CG17672 | DRSC10278 | 4.75e7 | 3.55e7 | – | 2.76e7 | 1.53e7 | inactive
Ccdc56 + mtTFB1 | DRSC10809 | 4.74e7 | 3.76e7 | – | 3.23e7 | 1.94e7 | inactive
PNPase | DRSC14304 | 1.99e7 | 2.76e7 | – | 9.26e6 | 1.29e7 | inactive
CG31544 (retired record) | DRSC12466 | 2.91e7 | 3.95e7 | – | 1.42e7 | 1.78e7 | inactive
CG17803 | DRSC15275 | 3.37e7 | 4.98e7 | – | 4.03e7 | 2.52e7 | inactive
CG17803 | DRSC22811 | 2.47e7 | 4.49e7 | – | 1.36e7 | 1.92e7 | inactive
Eb1 | DRSC05016 | 3.53e7 | 4.72e7 | – | 1.90e7 | 2.32e7 | inactive
CG11929 | DRSC00339 | 2.61e7 | 2.52e7 | – | 1.25e7 | 1.23e7 | inactive
Chs2 | DRSC11830 | 2.90e7 | 5.47e7 | – | 1.41e7 | 2.47e7 | inactive
CG11590 | DRSC19411 | 2.91e7 | 3.88e7 | – | 1.47e7 | 1.80e7 | inactive
okr | DRSC00834 | 3.68e7 | – | – | 2.23e7 | – | inactive
CG3061 | DRSC15460 | 3.60e7 | 5.11e7 | – | 1.79e7 | 6.04e7 | inactive
Cul3 | DRSC03537 | 4.64e7 | – | – | 2.62e7 | – | inactive
Cul3 | DRSC21525 | 3.77e7 | 3.20e7 | – | 2.13e7 | 1.54e7 | inactive
Doc3 | DRSC10480 | 3.68e7 | 3.91e7 | – | 1.67e7 | 1.80e7 | inactive
CIA30 | DRSC16266 | 3.02e7 | 3.48e7 | – | 1.25e7 | 1.52e7 | inactive
Prx3 | DRSC15883 | 3.71e7 | 3.33e7 | – | 1.74e7 | 1.58e7 | inactive
tbrd-3 | DRSC04295 | 3.94e7 | 4.05e7 | – | 1.99e7 | 1.90e7 | inactive
CG15347 | DRSC18031 | 3.64e7 | 5.46e7 | – | 1.87e7 | 2.45e7 | inactive
Listericin | DRSC07334 | 3.33e7 | 1.63e7 | – | 1.59e7 | 8.09e6 | inactive
aurA | DRSC16905 | 4.25e7 | 4.14e7 | – | 2.09e7 | 1.93e7 | inactive
CG18476 | DRSC15281 | 2.64e7 | 3.21e7 | – | 1.19e7 | 1.50e7 | inactive
Dhc1 | DRSC12748 | 1.50e7 | 2.46e7 | – | 8.08e6 | 1.15e7 | inactive
Dhc1 | DRSC16503 | 4.15e7 | 3.30e7 | – | 2.07e7 | 1.58e7 | inactive
Ski6 | DRSC02491 | 4.32e7 | 3.40e7 | – | 2.02e7 | 1.59e7 | inactive

The list goes on, starting with the last 6 of the part before.
Target gene | dsRNA | calcium entry signal, replicate 1 (fluorescence units) | calcium entry signal, replicate 2 (fluorescence units) | entry to resting ratio | resting calcium signal, replicate 1 (fluorescence units) | resting calcium signal, replicate 2 (fluorescence units) | activity call
Listericin | DRSC07334 | 3.33e7 | 1.63e7 | – | 1.59e7 | 8.09e6 | inactive
aurA | DRSC16905 | 4.25e7 | 4.14e7 | – | 2.09e7 | 1.93e7 | inactive
CG18476 | DRSC15281 | 2.64e7 | 3.21e7 | – | 1.19e7 | 1.50e7 | inactive
Dhc1 | DRSC12748 | 1.50e7 | 2.46e7 | – | 8.08e6 | 1.15e7 | inactive
Dhc1 | DRSC16503 | 4.15e7 | 3.30e7 | – | 2.07e7 | 1.58e7 | inactive
Ski6 | DRSC02491 | 4.32e7 | 3.40e7 | – | 2.02e7 | 1.59e7 | inactive
CG13510 | DRSC04152 | 3.61e7 | 3.91e7 | – | 1.94e7 | 1.78e7 | inactive
Spn88Ea | DRSC17061 | 3.79e7 | 5.55e7 | – | 1.89e7 | 7.03e7 | inactive
CG17549 | DRSC02625 | 4.36e7 | – | – | 2.25e7 | – | inactive
CG14422 | DRSC17919 | 6.38e7 | 6.01e7 | 2.1 | 3.08e7 | 2.42e7 | inactive
lov | DRSC04665 | 2.82e7 | 3.09e7 | – | 1.45e7 | 1.60e7 | inactive
CG17625 | DRSC15249 | 4.25e7 | 3.49e7 | – | 2.06e7 | 1.49e7 | inactive
ND-51 | DRSC03145 | 5.56e7 | – | – | 2.93e7 | – | inactive
CG13002 | DRSC19521 | 3.21e7 | 3.33e7 | – | 1.71e7 | 1.34e7 | inactive
CR30374 | DRSC05080 | 3.13e7 | 6.33e7 | – | 1.67e7 | 2.45e7 | inactive
CG8195 | DRSC07103 | 2.97e7 | 2.51e7 | – | 1.33e7 | 1.29e7 | inactive
CG15022 | DRSC08476 | 2.52e7 | 7.01e7 | – | 1.22e7 | 2.60e7 | inactive
betaTry | DRSC07582 | 2.65e7 | 3.87e7 | – | 1.38e7 | 1.94e7 | inactive
betaTry | DRSC22377 | 3.57e7 | 5.37e7 | – | 1.78e7 | 2.66e7 | inactive
EbpIII | DRSC04638 | 2.71e7 | 3.42e7 | – | 1.47e7 | 1.49e7 | inactive
X11L | DRSC19958 | 2.62e7 | 4.84e7 | – | 1.23e7 | 2.08e7 | inactive
X11L | DRSC19959 | 2.13e7 | 2.66e7 | – | 1.12e7 | 1.23e7 | inactive
Tsen54 | DRSC10527 | 2.88e7 | 3.43e7 | – | 1.54e7 | 1.65e7 | inactive
CG12099 | DRSC08253 | 3.09e7 | 3.73e7 | – | 1.50e7 | 1.65e7 | inactive
CG14818 | DRSC18548 | 5.79e7 | 6.25e7 | 2.1 | 2.73e7 | 2.64e7 | inactive
car | DRSC20316 | 3.42e7 | 3.34e7 | – | 1.73e7 | 1.40e7 | inactive
tst + CG10375 | DRSC14237 | 4.27e7 | 3.81e7 | – | 2.08e7 | 1.75e7 | inactive
Nxf3 | DRSC21749 | 3.37e7 | 4.26e7 | – | 1.86e7 | 1.95e7 | inactive
Xbp1 | DRSC04553 | 6.13e7 | 3.34e7 | – | 2.88e7 | 1.65e7 | inactive
Xbp1 | DRSC21624 | 3.73e7 | 3.71e7 | – | 2.00e7 | 1.66e7 | inactive
CG5399 | DRSC15791 | 2.29e7 | 3.83e7 | – | 1.20e7 | 4.48e7 | inactive
